Experimental data: US20240108739A1 (PHI PHARMA SA, priority 2020, published 2024)

Assay: general procedure: Fmoc solid-phase peptide synthesis; Rink Amide resin (capacity: 0.18-0.22 mmol/g)
Conditions: conjugation step, LC-MS purity analysis of lyophilized final products

Substance | final LC-MS purity [%]
[(51-hS)2KS]2KC-Mal-Alexa488 | 99.647
[(51-hS)2KS]2-KC-Mal-Biotin | 89.360
(51-hS)2KS-(51-hS)-KC-Mal-Biotin | 55.798
[(51-hS)2KS]2KC-Mal-Val-Cit-Azonafide | 94.157
(51-hS)2KC-Mal-Alexa488 | 96.165
(51-hS)2-KC-Mal-Biotin | 91.318
(51-hS)2KS-(51-hS)KC-Mal-Val-Cit-Azonafide | 95.575
(51-hS)2KC-Mal-Val-Cit-Azonafide | 98.462
(51-hS)2KS-(51-hS)KC-Mal-Alexa488 | 99.707
